In the supplement of paper PMC8728848:
This is one part of the list.

Legend:
Assay in all cases: glycan array binding signal (z-score within array); higher = stronger binding
Details in all cases: glycan notation: IUPAC condensed, linker removed
Glc(b1-4)Glc = biological target: Glc(b1-4)Glc
Summary of the method: (§1)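 The binding signal is a Z-score computed within each array. Data were drawn from 3228 arrays in the Consortium for Functional Glycomics database, restricted to those with a known protein sequence. Scores were averaged over arrays of the same protein sequence at different concentrations or buffers, and over linkers, and negative values can be taken as non-binding.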

Glc(b1-6)Glc = biological target: Glc(b1-6)Glc
Summary of the method: as §1

GlcA(b1-3)Gal = biological target: GlcA(b1-3)Gal
Summary of the method: as §1

GlcA(b1-3)GlcNAc = biological target: GlcA(b1-3)GlcNAc
Summary of the method: as §1

GlcA(b1-6)Gal = biological target: GlcA(b1-6)Gal
Summary of the method: as §1

[1] = biological target: GlcA3S(b1-3)Gal(b1-4)GlcNAc(b1-2)Man
Summary of the method: as §1

[2] = biological target: GlcA3S(b1-3)Gal(b1-4)GlcNAc(b1-3)Gal(b1-4)Glc
Summary of the method: as §1

[3] = biological target: GlcNAc(a1-3)Gal(b1-4)GlcNAc
Summary of the method: as §1

[4] = biological target: GlcNAc(a1-4)Gal(b1-3)GlcNAc
Summary of the method: as §1

[5] = biological target: GlcNAc(a1-4)Gal(b1-4)GalNAc
Summary of the method: as §1

[6] = biological target: GlcNAc(a1-4)Gal(b1-4)GlcNAc
Summary of the method: as §1

[7] = biological target: GlcNAc(a1-4)Gal(b1-4)GlcNAc(b1-3)Gal(b1-4)Glc
Summary of the method: as §1

[8] = biological target: GlcNAc(a1-4)Gal(b1-4)GlcNAc(b1-3)Gal(b1-4)GlcNAc
Summary of the method: as §1

[9] = biological target: GlcNAc(a1-4)Gal(b1-4)GlcNAc(b1-3)Gal(b1-4)GlcNAc(b1-3)Gal(b1-4)GlcNAc
Summary of the method: as §1

[10] = biological target: GlcNAc(a1-4)Gal(b1-4)GlcNAc(b1-3)Gal(b1-4)[Fuc(a1-3)]GlcNAc(b1-3)Gal(b1-4)[Fuc(a1-3)]GlcNAc
Summary of the method: as §1

[11] = biological target: GlcNAc(a1-6)Gal(b1-4)GlcNAc
Summary of the method: as §1

[12] = biological target: GlcNAc(b1-2)Gal(b1-3)GalNAc
Summary of the method: as §1

[13] = biological target: GlcNAc(b1-2)Man(a1-3)[GlcNAc(b1-2)Man(a1-6)]Man(b1-4)GlcNAc(b1-4)GlcNAc
Summary of the method: as §1

[14] = biological target: GlcNAc(b1-2)Man(a1-3)[GlcNAc(b1-2)Man(a1-6)]Man(b1-4)GlcNAc(b1-4)[Fuc(a1-6)]GlcNAc
Summary of the method: as §1

[15] = biological target: GlcNAc(b1-2)Man(a1-3)[GlcNAc(b1-4)][GlcNAc(b1-2)Man(a1-6)]Man(b1-4)GlcNAc(b1-4)GlcNAc
Summary of the method: as §1

[16] = biological target: GlcNAc(b1-2)Man(a1-3)[GlcNAc(b1-4)][GlcNAc(b1-2)Man(a1-6)]Man(b1-4)GlcNAc(b1-4)[Fuc(a1-6)]GlcNAc
Summary of the method: as §1

[17] = biological target: GlcNAc(b1-2)[GlcNAc(b1-4)]Man(a1-3)[GlcNAc(b1-2)Man(a1-6)]Man(b1-4)GlcNAc(b1-4)GlcNAc
Summary of the method: as §1

[18] = biological target: GlcNAc(b1-2)[GlcNAc(b1-4)]Man(a1-3)[GlcNAc(b1-4)][GlcNAc(b1-2)Man(a1-6)]Man(b1-4)GlcNAc(b1-4)GlcNAc
Summary of the method: as §1

[19] = biological target: GlcNAc(b1-2)[GlcNAc(b1-4)]Man(a1-3)[GlcNAc(b1-4)][GlcNAc(b1-2)[GlcNAc(b1-6)]Man(a1-6)]Man(b1-4)GlcNAc(b1-4)GlcNAc
Summary of the method: as §1

[20] = biological target: GlcNAc(b1-2)[GlcNAc(b1-4)]Man(a1-3)[GlcNAc(b1-4)][GlcNAc(b1-2)[GlcNAc(b1-6)]Man(a1-6)]Man(b1-4)GlcNAc(b1-4)[Fuc(a1-6)]GlcNAc
Summary of the method: as §1

[21] = biological target: GlcNAc(b1-2)[GlcNAc(b1-6)]Man(a1-6)[GlcNAc(b1-2)Man(a1-3)]Man(b1-4)GlcNAc(b1-4)GlcNAc
Summary of the method: as §1

[22] = biological target: GlcNAc(b1-2)[GlcNAc(b1-6)]Man(a1-6)[GlcNAc(b1-2)Man(a1-3)]Man(b1-4)GlcNAc(b1-4)[Fuc(a1-6)]GlcNAc
Summary of the method: as §1

[23] = biological target: GlcNAc(b1-2)[GlcNAc(b1-6)]Man(a1-6)[GlcNAc(b1-4)][GlcNAc(b1-2)Man(a1-3)]Man(b1-4)GlcNAc(b1-4)GlcNAc
Summary of the method: as §1

GlcNAc(b1-3)Fuc = biological target: GlcNAc(b1-3)Fuc
Summary of the method: as §1

GlcNAc(b1-3)Gal = biological target: GlcNAc(b1-3)Gal
Summary of the method: as §1

[24] = biological target: GlcNAc(b1-3)Gal(b1-3)GalNAc
Summary of the method: as §1

GlcNAc(b1-3)Gal(b1-4)Glc = biological target: GlcNAc(b1-3)Gal(b1-4)Glc
Summary of the method: as §1

[25] = biological target: GlcNAc(b1-3)Gal(b1-4)GlcNAc
Summary of the method: as §1

[26] = biological target: GlcNAc(b1-3)Gal(b1-4)GlcNAc(b1-2)Man(a1-3)[GlcNAc(b1-3)Gal(b1-4)GlcNAc(b1-2)Man(a1-6)]Man(b1-4)GlcNAc(b1-4)GlcNAc
Summary of the method: as §1

[27] = biological target: GlcNAc(b1-3)Gal(b1-4)GlcNAc(b1-2)Man(a1-3)[GlcNAc(b1-3)Gal(b1-4)GlcNAc(b1-2)Man(a1-6)]Man(b1-4)GlcNAc(b1-4)[Fuc(a1-6)]GlcNAc
Summary of the method: as §1

[28] = biological target: GlcNAc(b1-3)Gal(b1-4)GlcNAc(b1-2)[GlcNAc(b1-3)Gal(b1-4)GlcNAc(b1-6)]Man(a1-6)[GlcNAc(b1-3)Gal(b1-4)GlcNAc(b1-2)Man(a1-3)]Man(b1-4)GlcNAc(b1-4)GlcNAc
Summary of the method: as §1

[29] = biological target: GlcNAc(b1-3)Gal(b1-4)GlcNAc(b1-3)Gal(b1-4)GlcNAc
Summary of the method: as §1

B1: LlpA (Burkholderia cenocepacia) (protein)
chain: MGSSHHHHHHSSGLVPRGSHKILGSNETLSAGNVVYSDNGQYHLAMQTDGNLVVYGPTGAVWQSQTSGSGGNRAVMQGDGNLVIYRADNTAAWSSKTAHPGAFLAVQDDGNVVIYWPRPAWASNTSDPATQQSAESKYLASGSTMSAGQTVTVAQYMLVFQADGNLVLYKNGGNPIWSTGTQGKGATYAVMQSDGNFVIYAGSTALWSTKTNGANGAQLVLQSDGNLVIYAPTAAWSTKFGLVTAPTSTSTSNNGPGSGICVGVCPPHPLNGNPFSPVGVGTTGLGFPTPGYPGAAF
Q: With B1 as the binder, how does the “glycan array binding signal (z-score)” value (Glc(b1-4)Glc) read?
A: -0.452

Q: What about the “glycan array binding signal (z-score)” value (Glc(b1-6)Glc) of the same binder?
A: -1.14

Q: What about the “glycan array binding signal (z-score)” value (GlcA(b1-3)Gal) of the same binder?
A: -0.071

Q: And the “glycan array binding signal (z-score)” value (GlcA(b1-3)GlcNAc)?
A: -0.512

Q: What about the “glycan array binding signal (z-score)” value (GlcA(b1-6)Gal) of the same binder?
A: -0.4

Q: And the “glycan array binding signal (z-score)” value [1]?
A: 0.331

Q: And the “glycan array binding signal (z-score)” value [2]?
A: -1.62

Q: And the “glycan array binding signal (z-score)” value [3]?
A: 0.615

Q: And the “glycan array binding signal (z-score)” value [4]?
A: -1.47

Q: What about the “glycan array binding signal (z-score)” value [5] of the same binder?
A: -0.6

Q: And the “glycan array binding signal (z-score)” value [6]?
A: -0.431

Q: What about the “glycan array binding signal (z-score)” value [7] of the same binder?
A: -0.208

Q: What about the “glycan array binding signal (z-score)” value [8] of the same binder?
A: 0.019

Q: What about the “glycan array binding signal (z-score)” value [9] of the same binder?
A: -0.456

Q: And the “glycan array binding signal (z-score)” value [10]?
A: 1.67

Q: And the “glycan array binding signal (z-score)” value [11]?
A: -0.035

Q: And the “glycan array binding signal (z-score)” value [12]?
A: -0.078

Q: What about the “glycan array binding signal (z-score)” value [13] of the same binder?
A: -0.014

Q: And the “glycan array binding signal (z-score)” value [14]?
A: -0.074

Q: And the “glycan array binding signal (z-score)” value [15]?
A: 0.686

Q: What about the “glycan array binding signal (z-score)” value [16] of the same binder?
A: -0.623

Q: What about the “glycan array binding signal (z-score)” value [17] of the same binder?
A: -0.382

Q: And the “glycan array binding signal (z-score)” value [18]?
A: 0.096

Q: What about the “glycan array binding signal (z-score)” value [19] of the same binder?
A: -0.839

Q: And the “glycan array binding signal (z-score)” value [20]?
A: -0.499

Q: What about the “glycan array binding signal (z-score)” value [21] of the same binder?
A: -0.37

Q: And the “glycan array binding signal (z-score)” value [22]?
A: -1.16

Q: What about the “glycan array binding signal (z-score)” value [23] of the same binder?
A: 0.298

Q: What about the “glycan array binding signal (z-score)” value (GlcNAc(b1-3)Fuc) of the same binder?
A: 0.48

Q: And the “glycan array binding signal (z-score)” value (GlcNAc(b1-3)Gal)?
A: -1.64

Q: What about the “glycan array binding signal (z-score)” value [24] of the same binder?
A: 0.088

Q: What about the “glycan array binding signal (z-score)” value (GlcNAc(b1-3)Gal(b1-4)Glc) of the same binder?
A: 0.332

Q: And the “glycan array binding signal (z-score)” value [25]?
A: -0.175

Q: What about the “glycan array binding signal (z-score)” value [26] of the same binder?
A: -1.55

Q: What about the “glycan array binding signal (z-score)” value [27] of the same binder?
A: 0.34

Q: And the “glycan array binding signal (z-score)” value [28]?
A: -0.511

Q: What about the “glycan array binding signal (z-score)” value [29] of the same binder?
A: 0.538
